Laboratory results as given in PMC5682686.
These are yes or no findings as the source states them, for the method shown. In cells and extracts the contact can be indirect. Some entries that bind do so weakly or less than the wild type.

By UniProt entry, the sequences of proteins in these tests, tags left out.
UniProt O00429: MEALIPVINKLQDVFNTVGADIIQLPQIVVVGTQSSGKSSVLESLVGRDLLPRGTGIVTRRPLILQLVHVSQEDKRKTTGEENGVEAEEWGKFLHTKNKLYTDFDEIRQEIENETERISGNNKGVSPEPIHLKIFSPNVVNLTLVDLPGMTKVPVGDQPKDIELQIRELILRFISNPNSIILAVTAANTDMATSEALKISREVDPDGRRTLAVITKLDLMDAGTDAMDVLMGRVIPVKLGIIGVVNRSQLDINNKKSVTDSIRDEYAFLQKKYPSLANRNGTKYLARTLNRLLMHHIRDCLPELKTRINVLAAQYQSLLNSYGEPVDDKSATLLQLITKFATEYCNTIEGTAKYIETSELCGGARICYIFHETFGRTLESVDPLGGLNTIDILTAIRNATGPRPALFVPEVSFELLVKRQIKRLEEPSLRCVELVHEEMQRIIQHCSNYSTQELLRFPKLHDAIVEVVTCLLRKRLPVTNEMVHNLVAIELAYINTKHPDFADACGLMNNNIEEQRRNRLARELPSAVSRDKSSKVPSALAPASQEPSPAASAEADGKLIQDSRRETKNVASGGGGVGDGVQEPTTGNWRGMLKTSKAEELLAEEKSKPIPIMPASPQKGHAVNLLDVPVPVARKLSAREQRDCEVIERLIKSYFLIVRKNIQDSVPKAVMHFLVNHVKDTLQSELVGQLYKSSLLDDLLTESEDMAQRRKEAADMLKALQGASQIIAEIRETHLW
UniProt Q8K1M6: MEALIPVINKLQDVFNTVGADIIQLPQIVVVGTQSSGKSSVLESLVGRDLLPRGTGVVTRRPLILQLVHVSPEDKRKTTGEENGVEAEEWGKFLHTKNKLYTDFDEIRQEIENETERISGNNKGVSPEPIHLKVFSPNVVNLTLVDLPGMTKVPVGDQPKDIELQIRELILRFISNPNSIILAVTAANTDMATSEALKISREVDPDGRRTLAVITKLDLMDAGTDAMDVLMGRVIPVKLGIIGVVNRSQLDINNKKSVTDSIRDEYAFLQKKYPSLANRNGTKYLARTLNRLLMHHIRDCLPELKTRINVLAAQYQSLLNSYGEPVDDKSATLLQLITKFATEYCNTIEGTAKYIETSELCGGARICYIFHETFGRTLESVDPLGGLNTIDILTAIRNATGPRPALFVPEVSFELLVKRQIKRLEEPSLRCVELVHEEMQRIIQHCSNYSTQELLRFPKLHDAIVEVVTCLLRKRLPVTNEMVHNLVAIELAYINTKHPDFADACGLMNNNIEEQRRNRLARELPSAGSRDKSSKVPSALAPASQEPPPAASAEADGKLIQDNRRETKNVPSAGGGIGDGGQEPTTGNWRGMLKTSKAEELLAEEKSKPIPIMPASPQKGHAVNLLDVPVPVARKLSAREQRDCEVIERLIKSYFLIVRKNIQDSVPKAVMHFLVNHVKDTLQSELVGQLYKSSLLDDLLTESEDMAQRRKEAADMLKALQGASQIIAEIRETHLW
UniProt P00519: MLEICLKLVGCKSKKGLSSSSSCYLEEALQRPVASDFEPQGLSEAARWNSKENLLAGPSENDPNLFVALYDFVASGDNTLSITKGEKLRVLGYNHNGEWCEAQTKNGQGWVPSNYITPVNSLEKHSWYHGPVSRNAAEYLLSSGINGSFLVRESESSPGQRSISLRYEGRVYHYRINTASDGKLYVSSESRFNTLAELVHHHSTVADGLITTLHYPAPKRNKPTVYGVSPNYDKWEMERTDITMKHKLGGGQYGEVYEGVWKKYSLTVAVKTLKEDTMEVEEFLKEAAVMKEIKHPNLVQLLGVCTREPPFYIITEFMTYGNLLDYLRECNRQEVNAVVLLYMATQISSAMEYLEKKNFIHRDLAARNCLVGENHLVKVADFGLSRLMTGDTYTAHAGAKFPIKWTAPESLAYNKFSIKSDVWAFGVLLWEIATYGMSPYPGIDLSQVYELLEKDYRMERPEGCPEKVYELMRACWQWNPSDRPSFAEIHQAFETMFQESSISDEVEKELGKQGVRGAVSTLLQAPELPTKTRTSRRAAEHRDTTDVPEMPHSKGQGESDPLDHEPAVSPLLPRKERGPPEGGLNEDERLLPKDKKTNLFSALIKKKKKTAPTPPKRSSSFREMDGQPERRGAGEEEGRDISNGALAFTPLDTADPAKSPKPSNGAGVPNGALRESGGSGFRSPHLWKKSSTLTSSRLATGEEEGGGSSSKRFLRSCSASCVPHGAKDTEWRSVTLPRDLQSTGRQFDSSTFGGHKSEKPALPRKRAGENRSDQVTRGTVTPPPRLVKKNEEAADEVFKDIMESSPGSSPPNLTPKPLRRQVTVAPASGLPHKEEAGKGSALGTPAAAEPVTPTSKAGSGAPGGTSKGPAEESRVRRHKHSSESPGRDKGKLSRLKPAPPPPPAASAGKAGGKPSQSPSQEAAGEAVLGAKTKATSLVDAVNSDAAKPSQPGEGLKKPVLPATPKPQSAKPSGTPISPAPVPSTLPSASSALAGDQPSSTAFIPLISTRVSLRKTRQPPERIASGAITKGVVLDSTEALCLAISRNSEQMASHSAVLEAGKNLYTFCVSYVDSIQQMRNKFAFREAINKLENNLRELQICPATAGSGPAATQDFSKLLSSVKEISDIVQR
UniProt P00520: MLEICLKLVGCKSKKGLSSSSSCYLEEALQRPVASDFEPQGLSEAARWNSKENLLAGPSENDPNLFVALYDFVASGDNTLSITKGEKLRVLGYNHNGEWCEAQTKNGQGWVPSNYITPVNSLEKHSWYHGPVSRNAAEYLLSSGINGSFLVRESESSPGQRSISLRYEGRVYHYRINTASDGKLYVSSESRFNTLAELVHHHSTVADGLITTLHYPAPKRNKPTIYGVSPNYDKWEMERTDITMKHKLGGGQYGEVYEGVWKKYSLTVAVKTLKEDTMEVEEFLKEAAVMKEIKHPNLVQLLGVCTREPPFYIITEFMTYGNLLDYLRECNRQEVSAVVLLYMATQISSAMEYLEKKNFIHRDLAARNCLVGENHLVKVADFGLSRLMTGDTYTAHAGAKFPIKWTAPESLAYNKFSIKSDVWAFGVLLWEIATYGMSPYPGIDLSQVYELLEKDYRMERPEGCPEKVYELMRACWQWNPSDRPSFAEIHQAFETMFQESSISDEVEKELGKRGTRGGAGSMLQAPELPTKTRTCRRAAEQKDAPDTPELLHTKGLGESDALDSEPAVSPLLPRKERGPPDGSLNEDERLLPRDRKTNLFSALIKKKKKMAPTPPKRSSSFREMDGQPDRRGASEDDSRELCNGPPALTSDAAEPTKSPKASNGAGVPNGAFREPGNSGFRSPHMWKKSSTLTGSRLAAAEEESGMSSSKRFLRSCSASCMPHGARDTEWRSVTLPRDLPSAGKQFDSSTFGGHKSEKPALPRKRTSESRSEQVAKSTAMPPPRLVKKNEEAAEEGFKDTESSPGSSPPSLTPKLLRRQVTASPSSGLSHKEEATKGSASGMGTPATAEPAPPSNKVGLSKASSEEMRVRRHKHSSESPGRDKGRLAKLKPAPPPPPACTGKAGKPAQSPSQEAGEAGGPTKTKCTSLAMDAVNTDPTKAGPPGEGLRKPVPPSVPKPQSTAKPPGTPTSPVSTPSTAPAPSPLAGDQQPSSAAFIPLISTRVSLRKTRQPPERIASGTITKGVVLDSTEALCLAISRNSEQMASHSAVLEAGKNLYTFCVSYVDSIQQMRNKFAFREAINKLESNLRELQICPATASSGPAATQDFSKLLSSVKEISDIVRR

Legend:
GFP-Drp1 (human) = GFP-Drp1 (human) (UniProt O00429); assay: co-IP; lysates of HEK-293T cells transfected with Myc-c-Abl and GFP-Drp1, with or without 1 mM H2O2 for 0.5 h; immunoprecipitated with anti-GFP antibody, immunoblot with anti-Myc antibody
[1] = target: Dynamin related protein 1 (Drp1) (endogenous, primary cortical neurons) (not stated (endogenous in primary cortical neurons)) (UniProt Q8K1M6); assay: co-IP; lysates of primary cortical neurons with or without 100 μM H2O2 for 0.5 h; immunoprecipitated with anti-Drp1 antibody, immunoblot with anti-c-Abl antibody; endogenous proteins

| binding (GFP-Drp1 (human)) | binding [1] | Substance |
| --- | --- | --- |
| binds | – | Myc-c-Abl (from UniProt P00519 1-1130) (enzyme) |
| – | binds | c-Abl (endogenous, primary cortical neurons) (from UniProt P00520 1-1123) (enzyme) |
